Source: PubChem BioAssay AID463205 (Broad Institute, 2010)
In all, about 2,400 compounds went through this assay and about 20 (0.8%) were called active.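 Rule for the calls: active = AC50 no more than ten times the highest tested concentration, or full inhibition at every dose giving a flat fit (cut at about 30 µM in these data); inconclusive = flat fit with activity between 30% and 70%, or poor-quality invalid fit; inactive = AC50 more than ten times the top tested dose.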 The list shows a part of the results.

Assay: luciferase-based ADP detection interference – biochemical, luminescence, cell-free, homogeneous, artefact control for GSK-3a inhibitor project, dose response (AID 463205);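 note: kinase-free counter-screen against the ADP-Glo detection reagents only; potency is for inhibitors that reduce the luminescence signal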
Conditions: Cell-free ADP-Glo detection reagents, 5 uM ADP

SMILES | AC50
O=c1[nH]c(O)c(C=NC2CCN(Cc3ccccc3)CC2)c(=O)[nH]1 | inactive: > 30 µM
ClCCN1CCN(c2ccnc3cc(Cl)ccc23)CC1 | inactive: > 30 µM
O=c1[nH]c(=O)n(Cc2ccco2)c(O)c1/C=N/N1CCCCC1 | inactive: > 30 µM
O=[N+]([O-])c1ccc(NCCCN2CCOCC2)nc1 | inactive: > 30 µM
COc1ccc(-n2c(O)c(C=NCCCn3ccnc3)c(=O)[nH]c2=O)cc1 | inactive: > 30 µM
CCN1CCN(Cc2cc(OC)c(OC)cc2[N+](=O)[O-])CC1 | inactive: > 30 µM
Cc1nc2cc(F)ccc2n1C1CCN(Cc2nnnn2CCc2ccccc2)CC1 | inactive: > 30 µM
O=C1/C(=C/c2cccc([N+](=O)[O-])c2)N2CCC1CC2 | inactive: > 30 µM
COc1cc2c(cc1OC)-c1c3c(cc4c1[C@@H](C2)N(C)CC4)OCO3 | inactive: > 30 µM
C=CCn1c(O)c(C=NC2CCN(Cc3ccccc3)CC2)c(=O)[nH]c1=O | inactive: > 30 µM
CN1/C(=C\C=C2C(=O)NC(=O)NC2=O)C(C)(C)c2ccccc21 | inactive: > 30 µM
Cc1cccc(NC(=O)CSc2nnc([C@@H](N)Cc3c[nH]c4ccccc34)o2)c1C | inactive: > 30 µM
CCOC(=O)N1CCC(NC(=O)CCc2nc(C3=CCN(C)CC3)no2)CC1 | inactive: > 30 µM
CN1CCc2nc3sc(C#N)c(N)c3c(-c3cccs3)c2C1 | inactive: > 30 µM
CCOc1ccccc1-n1c(O)c(C=NCCCn2ccnc2)c(=O)[nH]c1=O | inactive: > 30 µM
O=c1[nH]c(=S)n(C2CCCCC2)c(O)c1/C=N/N1CCOCC1 | inactive: > 30 µM
O=c1[nH]c(=O)n(C2CCCCCC2)c(O)c1C=NC1CCN(Cc2ccccc2)CC1 | inactive: > 30 µM
C=CCn1c(O)c(/C(C)=N/N2CCCCCC2)c(=O)[nH]c1=O | inactive: > 30 µM
CCN1C(=O)C(=C/C=C/c2ccco2)C(=O)N(CC)C1=S | inactive: > 30 µM
CN1CCC2(CC1)C(C#N)=C(N)NC(S)=C2C#N | inactive: > 30 µM

SMILES | AC50
O=[N+]([O-])c1ccc(NCCCN2CCOCC2)c2ncccc12 | inactive: > 30 µM
Cc1ccc2c(c1N)C(=O)c1ccccc1C2=O | inactive: > 30 µM
O=c1[nH]c(=O)n(CCc2ccccc2)c(O)c1C=NCCCn1ccnc1 | inactive: > 30 µM
COc1cc(O)cc2c1C(=O)OC(C)CCCC(=O)CCC/C=C\2 (stereo not drawn) | inactive: > 30 µM
NC(=O)CSc1nnc([C@@H](N)Cc2c[nH]c3ccccc23)o1 | inactive: > 30 µM
CN(C)C(=O)Oc1ccc([N+](=O)[O-])cc1 | inactive: > 30 µM
C[C@H]1CCCC(=O)CCCCCc2cc(O)cc(O)c2C(=O)O1 | inactive: > 30 µM
CCC(=NCCCn1ccnc1)c1c(O)n(Cc2ccccc2)c(=O)[nH]c1=O | inactive: > 30 µM
CN(C(=O)Oc1ccc([N+](=O)[O-])cc1)c1ccccc1 | inactive: > 30 µM
C[C@H]1CCC[C@@H](O)CCC/C=C/c2cc(O)cc(O)c2C(=O)O1 | inactive: > 30 µM
CCC(=NCc1cccnc1)c1c(O)n(C2CCCCC2)c(=O)[nH]c1=O | inactive: > 30 µM
CCn1nc(-c2ccccc2)nc2c(=O)n(C)c(=O)nc1-2 | inactive: > 30 µM
CC(=NCCCn1ccnc1)c1c(O)n(C2CCCCC2)c(=O)[nH]c1=O | inactive: > 30 µM
CCOc1cc(-c2nc3c(C)cccn3c2NCC2CCCO2)ccc1O (stereo not drawn) | inactive: > 30 µM
Cc1ccc2c(c1)C(c1ccccc1)=NCC(=O)N2 | inactive: > 30 µM
CCSc1nnc([C@@H](N)Cc2c[nH]c3ccccc23)o1 | inactive: > 30 µM
CCCCCCN=C(C)c1c(O)n(CCCC)c(=O)[nH]c1=O | inactive: > 30 µM
O=C1CN=C(c2ccccc2)c2cc(Br)ccc2N1 | inactive: > 30 µM
O=C(NCCCn1ccnc1)C(Cl)(Cl)Cl | inactive: > 30 µM
Cc1cccc(C)c1OC(=O)Cc1ccccc1 | inactive: > 30 µM

An excerpt from above in order of heavy-atom count, ascending.
SMILES | AC50
O=C1CN=C(c2ccccc2)c2cc(Br)ccc2N1 | inactive: > 30 µM
CN(C(=O)Oc1ccc([N+](=O)[O-])cc1)c1ccccc1 | inactive: > 30 µM
COc1cc(O)cc2c1C(=O)OC(C)CCCC(=O)CCC/C=C\2 (stereo not drawn) | inactive: > 30 µM

Continuation.

SMILES | AC50
CC(=NCCCn1ccnc1)c1c(O)n(-c2ccccc2)c(=O)[nH]c1=O | inactive: > 30 µM
COc1ccc(S(=O)(=O)NCc2ccc(C(=O)N3CCC4(CC3)OCCO4)cc2)cc1 | inactive: > 30 µM
C=CCNC(=O)c1c(N)n(Cc2ccco2)c2nc3ccccc3nc12 | inactive: > 30 µM
CCN(CC)CCCN=C(C)c1c(O)n(C2CCCCC2)c(=O)[nH]c1=O | inactive: > 30 µM
Cn1c(O)c(C=NCCc2c[nH]c3ccccc23)c(=O)n(C)c1=O | inactive: > 30 µM
CCc1nnc(NC(=O)CCc2nc(C3=CCN(C)CC3)no2)s1 | inactive: > 30 µM
CC(=NCCO)c1c(O)n(C2CCCCC2)c(=O)[nH]c1=O | inactive: > 30 µM
CN(C)C(=O)Oc1cccc2c(OC(=O)N(C)C)cccc12 | inactive: > 30 µM
CCc1ccccc1NC(=O)CSc1nnc([C@@H](N)Cc2c[nH]c3ccccc23)o1 | inactive: > 30 µM
CCC(=NCCCN(CC)CC)c1c(O)n(C2CCCCC2)c(=O)[nH]c1=O | inactive: > 30 µM
O=c1[nH]c(=O)n(Cc2ccccc2)c(O)c1C=NCCCn1ccnc1 | inactive: > 30 µM
CCC(=NCCCn1ccnc1)c1c(O)n(-c2ccccc2)c(=O)[nH]c1=O | inactive: > 30 µM
CC(=NCCCn1ccnc1)c1c(O)n(C)c(=O)n(C)c1=O | inactive: > 30 µM
CCN(C(=O)CN1CC=C(c2ccccc2)CC1)c1c(N)n(Cc2ccccc2)c(=O)[nH]c1=O | inactive: > 30 µM
C=C(C)CSc1nnc([C@@H](N)Cc2c[nH]c3ccccc23)o1 | inactive: > 30 µM
Cc1cc(OCc2cc(C(=O)O)oc2C)c2c3c(c(=O)oc2c1)CCCC3 | inactive: > 30 µM
CC(C)CN(C(=O)CN1CC=C(c2ccccc2)CC1)c1c(N)n(CC(C)C)c(=O)[nH]c1=O | inactive: > 30 µM
O=c1[nH]c(=O)n(Cc2ccc(F)cc2)c(O)c1C=NCCCn1ccnc1 | inactive: > 30 µM
